Data as given in PMC11449332.
No constants are given. Whether binding was seen depends on the method and setting. In cells and extracts the contact can be indirect. These calls come from enrichment with a bait or labelling near it, and not all partners need be listed.

Biological target: T1, TDRKH (endogenous, mouse testis) (mouse (endogenous in mouse testes)) (UniProt Q80VL1)
T1 sequence: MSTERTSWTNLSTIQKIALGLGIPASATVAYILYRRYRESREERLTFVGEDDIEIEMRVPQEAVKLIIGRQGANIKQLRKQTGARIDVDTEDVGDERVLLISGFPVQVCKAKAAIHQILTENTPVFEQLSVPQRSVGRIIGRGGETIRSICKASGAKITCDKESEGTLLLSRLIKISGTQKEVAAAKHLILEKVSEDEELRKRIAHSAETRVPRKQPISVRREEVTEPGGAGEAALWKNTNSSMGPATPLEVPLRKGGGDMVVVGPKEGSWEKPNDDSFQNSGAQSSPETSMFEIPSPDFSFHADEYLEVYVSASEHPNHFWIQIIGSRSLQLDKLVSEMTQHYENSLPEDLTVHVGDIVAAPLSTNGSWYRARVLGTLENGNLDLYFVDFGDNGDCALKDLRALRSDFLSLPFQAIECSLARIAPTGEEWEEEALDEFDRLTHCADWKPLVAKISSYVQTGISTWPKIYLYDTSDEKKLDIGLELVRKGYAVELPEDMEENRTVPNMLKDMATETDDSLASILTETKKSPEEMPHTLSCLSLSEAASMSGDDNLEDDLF
Assay: affinity purification with mass spectrometry; anti-TDRKH immunoprecipitation from Pnldc1+/- and Pnldc1 E30A/- mouse testis lysates (25 mM Tris-HCl pH 7.4, 150 mM NaCl, 1% Triton X-100), Protein A agarose, RPLC-MS/MS

B1: PNLDC1 (endogenous, Pnldc1+/- mouse testis) (enzyme, UniProt B2RXZ1 1-531)
chain: MDVGADEFEQSLPLLQELVAGADFVGLDIEFTGLRSNLSRPQQISLFDLPSEWYLKTRQSVQQFTICQIGLSMFSSIEGESNKYVAHSCNFFLFPTTFGILDSEFSFQASSVQFLNQYGFDYNKFLKNGIPYMNEEQEKKIKHSILRGNWRVRSSLDKDQIKVVIDKVTQWLDLAEEGDQMTLPGIAGFQAFEVQLVLRQALPNIWTVLKEEWVIVKKVSQPQRWYLEHASCDQVSCWKEQILLSARGFSVFFQMLVKAQKPLVGHNMMMDLLHLHEKFFRPLPESYDQFKQNIHSLFPVLIDTKNVTKDIWKELRFPRVSNLLEVYEVLSSNLNPTKDSGPVIIHARQCKKYAETKCPHEAAYDAFLCGSVLLKVAHLLLQRVHGNGAVHEPAFPQYLDVLAPYVNQVNLIRAGVPKINFSGPDYPSIRPPVLILTVKRWPGVSEQQVYREFQNLCKFDVRRFTRSQFLLLTNKFKDARSVLKEYRNHPTLQVSLYRSWRHSPNITCLLQVCSIVTTWAMIAFLLGRPMP
binding: binds

B2: PNLDC1 E30A (endogenous, Pnldc1 E30A/- mouse testis) (enzyme, UniProt B2RXZ1 1-531)
chain: MDVGADEFEQSLPLLQELVAGADFVGLDIAFTGLRSNLSRPQQISLFDLPSEWYLKTRQSVQQFTICQIGLSMFSSIEGESNKYVAHSCNFFLFPTTFGILDSEFSFQASSVQFLNQYGFDYNKFLKNGIPYMNEEQEKKIKHSILRGNWRVRSSLDKDQIKVVIDKVTQWLDLAEEGDQMTLPGIAGFQAFEVQLVLRQALPNIWTVLKEEWVIVKKVSQPQRWYLEHASCDQVSCWKEQILLSARGFSVFFQMLVKAQKPLVGHNMMMDLLHLHEKFFRPLPESYDQFKQNIHSLFPVLIDTKNVTKDIWKELRFPRVSNLLEVYEVLSSNLNPTKDSGPVIIHARQCKKYAETKCPHEAAYDAFLCGSVLLKVAHLLLQRVHGNGAVHEPAFPQYLDVLAPYVNQVNLIRAGVPKINFSGPDYPSIRPPVLILTVKRWPGVSEQQVYREFQNLCKFDVRRFTRSQFLLLTNKFKDARSVLKEYRNHPTLQVSLYRSWRHSPNITCLLQVCSIVTTWAMIAFLLGRPMP
binding: binds
